No constants are given. Whether binding was seen depends on the method and setting. Some results given as binding are weak or reduced against the parent protein; the word gives no strength.
Key:
[1] = biological target: human mesothelin protein (ELISA antigen) (human) (UniProt Q13421); assay: ELISA
[2] = biological target: T1, mouse mesothelin protein (ELISA antigen) (mouse) (UniProt Q61468); assay: ELISA
T1 sequence (looked up): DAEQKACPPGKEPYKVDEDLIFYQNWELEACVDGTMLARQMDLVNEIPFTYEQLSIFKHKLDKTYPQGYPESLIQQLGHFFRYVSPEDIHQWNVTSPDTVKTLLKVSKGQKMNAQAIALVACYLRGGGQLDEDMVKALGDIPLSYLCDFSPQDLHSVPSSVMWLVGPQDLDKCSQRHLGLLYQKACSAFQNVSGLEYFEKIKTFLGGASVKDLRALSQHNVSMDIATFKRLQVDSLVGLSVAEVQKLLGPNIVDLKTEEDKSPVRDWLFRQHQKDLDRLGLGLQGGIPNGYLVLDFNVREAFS

By UniProt entry, the sequences of proteins in these tests, tags left out. Where a name states a change or a piece, a line headed by the entry shows the natural chain unless it says otherwise.
UniProt Q13421: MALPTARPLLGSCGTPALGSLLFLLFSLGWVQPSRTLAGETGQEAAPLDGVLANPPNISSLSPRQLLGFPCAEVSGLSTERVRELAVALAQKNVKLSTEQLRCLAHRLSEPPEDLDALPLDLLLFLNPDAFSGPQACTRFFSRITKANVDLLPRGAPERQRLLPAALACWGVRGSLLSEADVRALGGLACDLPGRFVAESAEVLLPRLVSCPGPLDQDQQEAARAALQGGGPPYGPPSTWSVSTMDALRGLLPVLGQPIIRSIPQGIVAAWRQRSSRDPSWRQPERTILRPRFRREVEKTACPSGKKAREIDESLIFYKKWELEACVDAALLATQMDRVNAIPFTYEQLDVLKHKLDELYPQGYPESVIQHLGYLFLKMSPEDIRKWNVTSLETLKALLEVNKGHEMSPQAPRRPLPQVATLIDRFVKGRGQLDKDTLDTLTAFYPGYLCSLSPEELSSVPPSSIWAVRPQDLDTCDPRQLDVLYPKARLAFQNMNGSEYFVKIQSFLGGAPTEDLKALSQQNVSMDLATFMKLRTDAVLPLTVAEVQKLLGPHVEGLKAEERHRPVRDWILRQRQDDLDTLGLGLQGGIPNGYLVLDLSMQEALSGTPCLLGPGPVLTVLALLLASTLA

[3] = biological target: full-length human mesothelin protein (human) (UniProt Q13421); assay: ELISA on mesothelin fragments
[4] = biological target: full-length human mesothelin protein (human) (UniProt Q13421); assay: competitive ELISA with mesothelin fragments
[5] = biological target: full-length human mesothelin protein (human) (UniProt Q13421); assay: ELISA, antigen printed as MSLN, VHH concentration not given
[6] = biological target: human mesothelin protein (ELISA antigen) (human) (UniProt Q13421); assay: ELISA, single bars, VHH concentration not given; antigens Fc-human MSLN and R&D human MSLN
[7] = biological target: T1, mouse mesothelin protein (ELISA antigen) (mouse); assay: ELISA, single bars, VHH concentration not given; antigens rFc-mouse MSLN and R&D mouse MSLN
[8] = biological target: full-length human mesothelin protein (human) (UniProt Q13421); assay: ELISA on full-length mesothelin (called competitive ELISA in paragraph 233), VHH concentration not given

Measured: binding

B1: G8 camel single-domain (VHH) monoclonal antibody (VHH)
VHH: QVKLEESGGGSVQAGGSLRLSCTTSGYTNSYKWMGWFRQAPGQEREGVAVIYTGNDRTYYSDSVKGRFTISRDNAKNMIYLDMTRLRPEDSAVYECAIGHDGAWRYWGQGTQVTVSS
notes: Isolated from a camel VHH phage display library; also called G8 antibody; G8 anti-mesothelin VHH antibody
binds: [1] | [2] | [3] | [4] | [5] | [6] | [7] | [8]

B2: A101 camel single-domain (VHH) monoclonal antibody (VHH)
VHH: QVQLVESGGGTVQAGGSLKLACAASGLPRTYNVMGWFRQAPGKEREGVAIIYTTTGATYYRDSVKGRATISQDNAKKSVSLQMNSLRPEDTAIYYCVARQPNSGPWEYWGQGTQVTVSS
notes: Isolated from a camel VHH phage display library; also called A101 antibody; A101 anti-mesothelin VHH antibody
binds: [1] | [2] | [3] | [4] | [5] | [6] | [7] | [8]

— patent US20220064324A1 (US Dept. of Health and Human Services, published 2022)
